{
  "source": "patent US20090054720A1",
  "about": "“Use of histone deacetylase inhibitors in combination with radiation for the treatment of cancer” (priority 2002, published 2009)",
  "key": {"LNCaP spheroids": {"test_system": "LNCaP spheroids", "settings": "SAHA alone"}, "[1]": {"test_system": "prostate tumor xenografts", "settings": "nude mice (Butler et al. 2000); cited from earlier work"}},
  "note": "Read-outs that look alike come from different tables or passages of the source.",
  "data": [
    {"smiles": "O=C(CCCCCCC(=O)Nc1ccccc1)NO", "note": "[SAHA, Suberoylanilide hydroxamic acid]", "values": [
      {"measurement": "Ki67 staining (proliferation)", "setting": "LNCaP spheroids; at the end of the 96 h incubation with SAHA (5 μM)", "result": "virtually all cells making up the spheroids have stopped cycling"},
      {"measurement": "Ki67 staining (proliferation)", "setting": "LNCaP spheroids; within 6 to 24 hours after the end of 96 h SAHA incubation", "result": "faint positive Ki67 staining"},
      {"measurement": "inhibition of tumor xenografts", "setting": "[1]", "result": "inhibition of prostate tumor xenografts"}
    ]}
  ]
}
